Source: PubChem BioAssay AID743121 (NCATS, 2013)

Aim: 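Knock-downs that sensitise breast cancer cells to camptothecin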 (primary screen)
System: MDA-MB-231 cells, a human breast cancer line
Reagents: single siRNA against human genes, 20 nM siRNA (0.8 pmol per well)
Time to read-out: 120 h (drug added 48 h after transfection, read 72 h later)
Challenge: camptothecin 20 nM (about EC30) for 72 h; vehicle 0.1% DMSO in parallel plates
Measured: 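Cell viability by ATP luminescence (CellTiter-Glo) as % of non-targeting siRNA wells, and the log2 ratio of viability without drug over viability with camptothecin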
Scale: log2 vehicle/camptothecin viability: higher = stronger sensitisation to camptothecin; viability with camptothecin: higher = more viable cells
Units: viability with camptothecin in % of control
Call rule: 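Active genes have an RSA gene-level p-value below 0.001, computed from the ratios of their separate siRNAs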
This is one part, drawn at random, of about 26,000 reagents tested. Over the whole deposit, 167 (0.63%) got an active call. 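Calls are per gene from RSA p-values that are not deposited; an individual active-marked siRNA can sensitise only weakly.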 A number with no mark means an inactive call. The numbers tell different reagents against one gene apart. Further read-outs or replicates are left out here.

For DTX2 (deltex E3 ubiquitin ligase 2) #1, how do the results read?
log2 vehicle/camptothecin viability: 0.486; viability with camptothecin: 67.5

Which result is listed for DTX2 (deltex E3 ubiquitin ligase 2) #2?
log2 vehicle/camptothecin viability: -0.262; viability with camptothecin: 59.4

For DTX2 (deltex E3 ubiquitin ligase 2) #3, how do the results read?
log2 vehicle/camptothecin viability: 0.377; viability with camptothecin: 53.3

With DTX2 (deltex E3 ubiquitin ligase 2) #4, how do the results read?
log2 vehicle/camptothecin viability: -0.423; viability with camptothecin: 71.8

For CSNK1D (casein kinase 1 delta) #1, what does the deposit list?
log2 vehicle/camptothecin viability: 1.38; viability with camptothecin: 15.4

With CSNK1D (casein kinase 1 delta) #2, how do the results read?
log2 vehicle/camptothecin viability: 0.0469; viability with camptothecin: 57.9

How did the screen score CSNK1D (casein kinase 1 delta) #3?
log2 vehicle/camptothecin viability: -0.296; viability with camptothecin: 78.7

How did the screen score CSNK1D (casein kinase 1 delta) #4?
log2 vehicle/camptothecin viability: -0.204; viability with camptothecin: 110

With NCOA2 (nuclear receptor coactivator 2) #1, what does the deposit list?
log2 vehicle/camptothecin viability: -0.15; viability with camptothecin: 81.1

For NCOA2 (nuclear receptor coactivator 2) #2, how do the results read?
log2 vehicle/camptothecin viability: -0.267; viability with camptothecin: 58.9

What did the screen give for NCOA2 (nuclear receptor coactivator 2) #3?
log2 vehicle/camptothecin viability: -0.284; viability with camptothecin: 126

Which result is listed for NCOA2 (nuclear receptor coactivator 2) #4?
log2 vehicle/camptothecin viability: -0.283; viability with camptothecin: 99.5

What is on record for GPR65 (G protein-coupled receptor 65) #1?
log2 vehicle/camptothecin viability: -0.255; viability with camptothecin: 105

With GPR65 (G protein-coupled receptor 65) #2, what does the deposit list?
log2 vehicle/camptothecin viability: -0.226; viability with camptothecin: 119

What did the screen give for GPR65 (G protein-coupled receptor 65) #3?
log2 vehicle/camptothecin viability: 0.269; viability with camptothecin: 99.4

What is on record for GPR65 (G protein-coupled receptor 65) #4?
log2 vehicle/camptothecin viability: -0.698; viability with camptothecin: 71.6

What is on record for TRMT1 (tRNA methyltransferase 1) #1?
log2 vehicle/camptothecin viability: -0.122; viability with camptothecin: 86.5

How did the screen score TRMT1 (tRNA methyltransferase 1) #2?
log2 vehicle/camptothecin viability: -0.0938; viability with camptothecin: 39.5

With TRMT1 (tRNA methyltransferase 1) #3, what was measured?
log2 vehicle/camptothecin viability: 0.238; viability with camptothecin: 54.7

Which result is listed for CYB5R1 (cytochrome b5 reductase 1) #1?
log2 vehicle/camptothecin viability: -0.294; viability with camptothecin: 72.8

For CYB5R1 (cytochrome b5 reductase 1) #2, how do the results read?
log2 vehicle/camptothecin viability: 0.421; viability with camptothecin: 58.9

What is on record for CYB5R1 (cytochrome b5 reductase 1) #3?
log2 vehicle/camptothecin viability: -0.143; viability with camptothecin: 113

For CYB5R1 (cytochrome b5 reductase 1) #4, what was measured?
log2 vehicle/camptothecin viability: 0.129; viability with camptothecin: 78.8

For GRIN2C (glutamate ionotropic receptor NMDA type subunit 2C) #1, what does the deposit list?
log2 vehicle/camptothecin viability: 0.482; viability with camptothecin: 25.7

What did the screen give for GRIN2C (glutamate ionotropic receptor NMDA type subunit 2C) #2?
log2 vehicle/camptothecin viability: -0.0173; viability with camptothecin: 83.1

Which result is listed for GRIN2C (glutamate ionotropic receptor NMDA type subunit 2C) #3?
log2 vehicle/camptothecin viability: -0.114; viability with camptothecin: 75.6

Which result is listed for GRIN2C (glutamate ionotropic receptor NMDA type subunit 2C) #4?
log2 vehicle/camptothecin viability: -0.526; viability with camptothecin: 100

Which result is listed for CDK6 (cyclin dependent kinase 6) #1?
log2 vehicle/camptothecin viability: -0.187; viability with camptothecin: 66.2

What is on record for CDK6 (cyclin dependent kinase 6) #2?
log2 vehicle/camptothecin viability: -0.421; viability with camptothecin: 114

Which result is listed for CDK6 (cyclin dependent kinase 6) #3?
log2 vehicle/camptothecin viability: 0.0207; viability with camptothecin: 78.9

What did the screen give for CDK6 (cyclin dependent kinase 6) #4?
log2 vehicle/camptothecin viability: 0.0803; viability with camptothecin: 61.6

Which result is listed for SLC25A15 #1?
log2 vehicle/camptothecin viability: -0.362; viability with camptothecin: 62.3

For SLC25A15 #2, how do the results read?
log2 vehicle/camptothecin viability: 0.0185; viability with camptothecin: 78.1

What is on record for SLC25A15 #3?
log2 vehicle/camptothecin viability: 0.354; viability with camptothecin: 76.1

What did the screen give for FTL (ferritin light chain) #1?
log2 vehicle/camptothecin viability: -0.23; viability with camptothecin: 61.1

What is on record for FTL (ferritin light chain) #2?
log2 vehicle/camptothecin viability: 0.199; viability with camptothecin: 47.3

With FTL (ferritin light chain) #3, how do the results read?
log2 vehicle/camptothecin viability: -0.189; viability with camptothecin: 99.7

How did the screen score FTL (ferritin light chain) #4?
log2 vehicle/camptothecin viability: -0.973; viability with camptothecin: 4.82

With GPR107 (G protein-coupled receptor 107) #1, how do the results read?
log2 vehicle/camptothecin viability: -0.319; viability with camptothecin: 29.8

For GPR107 (G protein-coupled receptor 107) #2, what does the deposit list?
log2 vehicle/camptothecin viability: -0.247; viability with camptothecin: 102

With GPR107 (G protein-coupled receptor 107) #3, what was measured?
log2 vehicle/camptothecin viability: -0.286; viability with camptothecin: 105

What is on record for GPR107 (G protein-coupled receptor 107) #4?
log2 vehicle/camptothecin viability: -0.0691; viability with camptothecin: 103

For PTPN2 (protein tyrosine phosphatase non-receptor type 2) #1, what was measured?
log2 vehicle/camptothecin viability: 0.282; viability with camptothecin: 56.8

What is on record for PTPN2 (protein tyrosine phosphatase non-receptor type 2) #2?
log2 vehicle/camptothecin viability: 0.202; viability with camptothecin: 89.4

Which result is listed for PTPN2 (protein tyrosine phosphatase non-receptor type 2) #3?
log2 vehicle/camptothecin viability: -0.183; viability with camptothecin: 79.2

With PTPN2 (protein tyrosine phosphatase non-receptor type 2) #4, how do the results read?
log2 vehicle/camptothecin viability: -0.221; viability with camptothecin: 112
